These are yes or no findings as the source states them, for the method shown. In cells and extracts the contact can be indirect. Here binding means that the protein was enriched with, or labelled near, the bait; the list need not be complete.
Legend:
Assay in all cases: affinity purification with mass spectrometry
SLC9A4 (human) = molecular target: T1, SLC9A4 (human) (UniProt Q6AI14)
T1 sequence: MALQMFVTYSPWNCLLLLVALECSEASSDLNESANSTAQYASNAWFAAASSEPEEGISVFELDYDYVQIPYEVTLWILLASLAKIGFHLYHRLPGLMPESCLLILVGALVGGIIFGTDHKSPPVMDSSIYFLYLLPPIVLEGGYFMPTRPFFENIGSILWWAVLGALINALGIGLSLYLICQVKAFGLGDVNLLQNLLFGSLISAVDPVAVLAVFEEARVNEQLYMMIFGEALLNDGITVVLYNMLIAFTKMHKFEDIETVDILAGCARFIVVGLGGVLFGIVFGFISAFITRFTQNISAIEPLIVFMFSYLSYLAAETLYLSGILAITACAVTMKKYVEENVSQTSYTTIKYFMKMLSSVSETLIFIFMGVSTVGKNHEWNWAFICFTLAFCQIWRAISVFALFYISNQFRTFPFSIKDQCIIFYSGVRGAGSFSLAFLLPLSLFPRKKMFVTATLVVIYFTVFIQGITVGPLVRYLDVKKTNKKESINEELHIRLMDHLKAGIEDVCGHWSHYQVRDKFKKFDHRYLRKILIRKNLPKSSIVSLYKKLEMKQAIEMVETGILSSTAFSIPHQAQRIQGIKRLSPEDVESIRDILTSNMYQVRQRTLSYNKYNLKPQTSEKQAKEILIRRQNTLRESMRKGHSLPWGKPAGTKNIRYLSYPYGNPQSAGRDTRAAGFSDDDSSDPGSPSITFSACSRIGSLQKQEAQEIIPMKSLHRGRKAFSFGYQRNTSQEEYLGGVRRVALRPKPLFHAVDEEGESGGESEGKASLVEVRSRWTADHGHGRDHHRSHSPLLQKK

SLC9A7 (human) = molecular target: T2, SLC9A7 (human) (UniProt Q96T83)
T2 sequence: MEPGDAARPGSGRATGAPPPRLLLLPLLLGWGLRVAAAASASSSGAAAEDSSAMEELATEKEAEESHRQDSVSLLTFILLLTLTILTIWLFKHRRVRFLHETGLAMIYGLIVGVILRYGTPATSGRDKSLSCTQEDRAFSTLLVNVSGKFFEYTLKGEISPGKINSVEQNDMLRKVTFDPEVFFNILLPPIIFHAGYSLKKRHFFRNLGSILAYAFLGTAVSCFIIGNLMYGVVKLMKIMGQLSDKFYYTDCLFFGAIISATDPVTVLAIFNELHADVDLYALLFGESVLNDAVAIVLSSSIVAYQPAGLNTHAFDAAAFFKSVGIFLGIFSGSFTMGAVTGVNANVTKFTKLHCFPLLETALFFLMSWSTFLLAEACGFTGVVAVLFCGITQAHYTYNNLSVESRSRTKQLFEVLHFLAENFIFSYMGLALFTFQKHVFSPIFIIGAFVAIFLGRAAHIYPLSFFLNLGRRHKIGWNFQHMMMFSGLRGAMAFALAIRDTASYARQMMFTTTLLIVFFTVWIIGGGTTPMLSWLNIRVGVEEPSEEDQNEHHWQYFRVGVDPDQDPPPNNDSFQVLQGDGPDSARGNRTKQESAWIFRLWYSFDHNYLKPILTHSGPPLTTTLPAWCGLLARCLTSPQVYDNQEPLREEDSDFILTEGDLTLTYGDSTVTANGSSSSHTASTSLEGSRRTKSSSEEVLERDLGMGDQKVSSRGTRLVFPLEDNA

SLC9A8 (human) = molecular target: T3, SLC9A8 (human) (UniProt Q9Y2E8)
T3 sequence: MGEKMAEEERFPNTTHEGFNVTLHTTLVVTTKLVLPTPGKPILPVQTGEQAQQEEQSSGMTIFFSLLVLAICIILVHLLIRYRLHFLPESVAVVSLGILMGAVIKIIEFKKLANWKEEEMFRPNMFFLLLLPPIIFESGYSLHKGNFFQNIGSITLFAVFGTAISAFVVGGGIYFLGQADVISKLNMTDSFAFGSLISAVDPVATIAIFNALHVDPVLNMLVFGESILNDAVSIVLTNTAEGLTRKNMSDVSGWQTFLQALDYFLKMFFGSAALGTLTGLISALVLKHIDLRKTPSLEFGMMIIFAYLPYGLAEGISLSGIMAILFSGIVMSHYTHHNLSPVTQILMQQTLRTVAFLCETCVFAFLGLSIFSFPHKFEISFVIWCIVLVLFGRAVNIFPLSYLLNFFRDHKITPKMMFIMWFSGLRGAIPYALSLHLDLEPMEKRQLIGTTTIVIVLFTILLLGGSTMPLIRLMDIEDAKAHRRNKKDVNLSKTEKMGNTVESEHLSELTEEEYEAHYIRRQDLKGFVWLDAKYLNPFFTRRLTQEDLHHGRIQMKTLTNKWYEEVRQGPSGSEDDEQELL

binding (SLC9A4 (human)): binds
binding (SLC9A7 (human)): binds
binding (SLC9A8 (human)): binds
B1: calcium-binding protein CHP1 (protein, UniProt Q99653 1-195)
chain: MGSRASTLLRDEELEEIKKETGFSHSQITRLYSRFTSLDKGENGTLSREDFQRIPELAINPLGDRIINAFFPEGEDQVNFRGFMRTLAHFRPIEDNEKSKDVNGPEPLNSRSNKLHFAFRLYDLDKDEKISRDELLQVLRMMVGVNISDEQLGSIADRTIQEADQDGDSAISFTEFVKVLEKVDVEQKMSIRFLH

Source: article doi:10.1101/2024.09.30.615192
